From publication PMC6704582
Results are given in words; binding and its absence hold for the method and conditions named. In cells and extracts the contact can be indirect. Some entries that bind do so weakly or less than the wild type.

Amino acid sequences for entries named in this document (tags omitted).
UniProt O60260: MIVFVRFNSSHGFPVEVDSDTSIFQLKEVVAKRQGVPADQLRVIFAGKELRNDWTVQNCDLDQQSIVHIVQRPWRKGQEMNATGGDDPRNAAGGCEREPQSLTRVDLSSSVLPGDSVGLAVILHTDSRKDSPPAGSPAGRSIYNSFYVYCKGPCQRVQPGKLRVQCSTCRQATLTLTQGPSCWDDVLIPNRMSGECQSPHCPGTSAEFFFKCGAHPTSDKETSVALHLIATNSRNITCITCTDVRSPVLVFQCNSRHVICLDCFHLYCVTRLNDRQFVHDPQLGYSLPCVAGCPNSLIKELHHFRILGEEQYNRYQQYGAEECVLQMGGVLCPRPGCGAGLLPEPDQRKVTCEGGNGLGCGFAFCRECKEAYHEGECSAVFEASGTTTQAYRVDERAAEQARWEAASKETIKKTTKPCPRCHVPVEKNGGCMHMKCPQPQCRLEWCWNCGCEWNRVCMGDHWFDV
UniProt P35222: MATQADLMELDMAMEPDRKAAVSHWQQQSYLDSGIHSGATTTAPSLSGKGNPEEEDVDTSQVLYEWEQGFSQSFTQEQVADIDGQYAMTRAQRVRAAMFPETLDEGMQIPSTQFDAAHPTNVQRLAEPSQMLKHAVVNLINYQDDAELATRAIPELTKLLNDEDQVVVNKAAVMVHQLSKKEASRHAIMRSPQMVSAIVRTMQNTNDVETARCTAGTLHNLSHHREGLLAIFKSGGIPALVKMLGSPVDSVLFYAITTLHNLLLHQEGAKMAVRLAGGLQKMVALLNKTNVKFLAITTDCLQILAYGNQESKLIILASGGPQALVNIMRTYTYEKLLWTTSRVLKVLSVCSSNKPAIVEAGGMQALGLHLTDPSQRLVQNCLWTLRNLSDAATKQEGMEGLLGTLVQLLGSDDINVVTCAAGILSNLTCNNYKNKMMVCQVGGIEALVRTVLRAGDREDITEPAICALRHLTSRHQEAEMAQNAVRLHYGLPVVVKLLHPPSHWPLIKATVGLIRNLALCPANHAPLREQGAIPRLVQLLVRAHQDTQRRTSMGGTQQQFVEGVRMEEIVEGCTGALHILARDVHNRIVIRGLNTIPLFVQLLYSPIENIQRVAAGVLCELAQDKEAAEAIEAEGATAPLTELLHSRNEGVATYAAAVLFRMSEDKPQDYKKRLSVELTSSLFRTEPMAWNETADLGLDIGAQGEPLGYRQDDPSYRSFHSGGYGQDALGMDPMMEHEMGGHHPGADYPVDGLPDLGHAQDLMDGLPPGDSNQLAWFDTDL

Biological target: Myc-tagged parkin (UniProt O60260)
Assay: co-IP; HepG2 cells transfected with Myc-vector or Myc-parkin, ethanol treatment for 24 h; protein extracts immunoprecipitated with anti-Myc agarose, immunoblot for β-catenin

binding: binds
Substance: β-catenin (from UniProt P35222 1-781)
